Reference: PubChem BioAssay AID588591 (National Center for Advancing Translational Sciences (NCATS), 2011)
Screen size: about 390,000 compounds; about 4,700 (1.2%) were called active. All entries are inconclusive by the source's own rule. Clear calls are listed elsewhere. Calls follow the shape of the dose curve; as a rule, active = well fitted inhibition curve with a large enough effect; inconclusive = small, poorly fitted or top-dose-only effect, or another doubt; inactive = no such curve, though single readings can be large or run the other way.

Sequences of proteins named here, by UniProt entry; tags and fusion partners are left off.
UniProt Q9Y253, whole entry: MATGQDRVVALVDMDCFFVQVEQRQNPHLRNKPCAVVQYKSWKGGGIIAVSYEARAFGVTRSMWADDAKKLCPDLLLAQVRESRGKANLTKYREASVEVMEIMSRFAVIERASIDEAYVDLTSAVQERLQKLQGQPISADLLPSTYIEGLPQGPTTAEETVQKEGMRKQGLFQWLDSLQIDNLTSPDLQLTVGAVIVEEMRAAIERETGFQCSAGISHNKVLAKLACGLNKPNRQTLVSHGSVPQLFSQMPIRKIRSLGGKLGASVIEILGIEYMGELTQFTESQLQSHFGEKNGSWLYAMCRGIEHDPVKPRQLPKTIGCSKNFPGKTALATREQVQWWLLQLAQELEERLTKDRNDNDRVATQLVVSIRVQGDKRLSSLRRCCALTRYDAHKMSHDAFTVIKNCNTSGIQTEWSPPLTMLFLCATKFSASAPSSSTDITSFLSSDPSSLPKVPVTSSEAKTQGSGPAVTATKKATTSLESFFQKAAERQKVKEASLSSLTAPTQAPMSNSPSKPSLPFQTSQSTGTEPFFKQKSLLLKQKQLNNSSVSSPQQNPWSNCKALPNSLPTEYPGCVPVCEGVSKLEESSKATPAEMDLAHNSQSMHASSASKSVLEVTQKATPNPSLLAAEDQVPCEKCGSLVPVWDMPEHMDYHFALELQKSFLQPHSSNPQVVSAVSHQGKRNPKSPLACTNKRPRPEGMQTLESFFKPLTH

target: DNA polymerase eta (Homo sapiens) (UniProt Q9Y253); test: qHTS for Inhibitors of Polymerase Eta; settings: recombinant Pol eta, fluorescent DNA replication assay
Potency is read from the fitted curve at half-maximal effect.

SMILES | Potency
CCCCCCCCCCCCCCCC1C[N+](C)(C)CCOP(C)(=O)O1 (stereo not drawn) | inconclusive: 44.7 µM
CCCCCOc1ccc(NP(C)(=O)Oc2ccc(Cl)cc2Cl)cc1 (stereo not drawn) | inconclusive: 50.1 µM
CC(C)(C)c1ccc(OP(C)(=O)Nc2ccc(SC(F)(F)F)cc2)cc1 (stereo not drawn) | inconclusive: 20 µM
